We go through 23 targets from the supplement of paper PMC12067093, “Discovery and optimisation of a covalent ligand for TRIM25 and its application to targeted protein ubiquitination” (Chemical Science, 2025).

Protein sequences, listed by entry. Tags and fused reporters are not part of them. Lines headed by an entry give the natural chain unless they say otherwise; changes in a name come on top.
UniProt O43598: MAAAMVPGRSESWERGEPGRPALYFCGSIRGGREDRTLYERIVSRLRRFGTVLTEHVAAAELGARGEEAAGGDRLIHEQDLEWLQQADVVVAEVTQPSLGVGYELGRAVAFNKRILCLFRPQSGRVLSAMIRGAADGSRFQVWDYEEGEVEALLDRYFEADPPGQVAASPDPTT
UniProt Q16254: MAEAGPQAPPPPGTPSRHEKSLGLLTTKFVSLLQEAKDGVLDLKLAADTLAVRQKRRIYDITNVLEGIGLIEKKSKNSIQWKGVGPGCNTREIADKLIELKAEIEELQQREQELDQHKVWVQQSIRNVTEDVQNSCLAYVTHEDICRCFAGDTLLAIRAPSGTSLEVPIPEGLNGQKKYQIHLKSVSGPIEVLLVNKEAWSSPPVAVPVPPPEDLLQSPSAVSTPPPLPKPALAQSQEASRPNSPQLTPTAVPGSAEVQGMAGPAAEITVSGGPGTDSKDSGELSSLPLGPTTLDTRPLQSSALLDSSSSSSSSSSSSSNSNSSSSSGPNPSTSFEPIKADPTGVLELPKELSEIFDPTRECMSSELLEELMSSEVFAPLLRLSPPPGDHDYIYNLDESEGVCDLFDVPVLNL
UniProt P33316: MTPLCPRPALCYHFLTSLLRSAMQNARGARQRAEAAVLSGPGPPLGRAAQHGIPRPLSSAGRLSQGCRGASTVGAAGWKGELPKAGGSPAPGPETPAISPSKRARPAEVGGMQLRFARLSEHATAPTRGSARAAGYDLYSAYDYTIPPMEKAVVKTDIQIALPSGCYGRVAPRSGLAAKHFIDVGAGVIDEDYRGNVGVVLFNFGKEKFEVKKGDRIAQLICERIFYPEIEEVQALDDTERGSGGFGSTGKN
UniProt Q96G46: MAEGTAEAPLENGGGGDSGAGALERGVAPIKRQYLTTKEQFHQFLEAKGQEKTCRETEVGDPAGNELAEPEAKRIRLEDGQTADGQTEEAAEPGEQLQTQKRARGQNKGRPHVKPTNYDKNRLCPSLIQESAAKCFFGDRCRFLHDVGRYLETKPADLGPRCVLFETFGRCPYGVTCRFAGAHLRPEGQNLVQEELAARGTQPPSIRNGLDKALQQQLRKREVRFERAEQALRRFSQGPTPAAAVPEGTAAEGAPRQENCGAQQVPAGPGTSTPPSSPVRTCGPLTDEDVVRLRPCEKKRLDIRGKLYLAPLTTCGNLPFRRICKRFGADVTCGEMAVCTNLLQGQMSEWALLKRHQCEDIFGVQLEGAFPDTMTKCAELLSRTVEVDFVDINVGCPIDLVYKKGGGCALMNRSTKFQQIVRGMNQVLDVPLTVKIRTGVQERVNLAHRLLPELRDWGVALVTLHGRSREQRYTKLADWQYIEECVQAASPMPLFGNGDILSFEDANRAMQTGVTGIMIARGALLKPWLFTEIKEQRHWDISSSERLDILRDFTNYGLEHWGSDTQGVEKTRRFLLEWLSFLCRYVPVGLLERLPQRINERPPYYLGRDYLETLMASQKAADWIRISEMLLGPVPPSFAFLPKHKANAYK
UniProt P23919: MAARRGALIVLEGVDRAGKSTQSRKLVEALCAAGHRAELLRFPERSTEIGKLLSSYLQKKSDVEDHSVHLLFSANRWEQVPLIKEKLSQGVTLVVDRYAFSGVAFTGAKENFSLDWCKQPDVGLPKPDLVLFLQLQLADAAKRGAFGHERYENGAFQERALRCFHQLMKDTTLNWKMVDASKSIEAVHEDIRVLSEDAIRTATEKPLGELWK
UniProt P26358: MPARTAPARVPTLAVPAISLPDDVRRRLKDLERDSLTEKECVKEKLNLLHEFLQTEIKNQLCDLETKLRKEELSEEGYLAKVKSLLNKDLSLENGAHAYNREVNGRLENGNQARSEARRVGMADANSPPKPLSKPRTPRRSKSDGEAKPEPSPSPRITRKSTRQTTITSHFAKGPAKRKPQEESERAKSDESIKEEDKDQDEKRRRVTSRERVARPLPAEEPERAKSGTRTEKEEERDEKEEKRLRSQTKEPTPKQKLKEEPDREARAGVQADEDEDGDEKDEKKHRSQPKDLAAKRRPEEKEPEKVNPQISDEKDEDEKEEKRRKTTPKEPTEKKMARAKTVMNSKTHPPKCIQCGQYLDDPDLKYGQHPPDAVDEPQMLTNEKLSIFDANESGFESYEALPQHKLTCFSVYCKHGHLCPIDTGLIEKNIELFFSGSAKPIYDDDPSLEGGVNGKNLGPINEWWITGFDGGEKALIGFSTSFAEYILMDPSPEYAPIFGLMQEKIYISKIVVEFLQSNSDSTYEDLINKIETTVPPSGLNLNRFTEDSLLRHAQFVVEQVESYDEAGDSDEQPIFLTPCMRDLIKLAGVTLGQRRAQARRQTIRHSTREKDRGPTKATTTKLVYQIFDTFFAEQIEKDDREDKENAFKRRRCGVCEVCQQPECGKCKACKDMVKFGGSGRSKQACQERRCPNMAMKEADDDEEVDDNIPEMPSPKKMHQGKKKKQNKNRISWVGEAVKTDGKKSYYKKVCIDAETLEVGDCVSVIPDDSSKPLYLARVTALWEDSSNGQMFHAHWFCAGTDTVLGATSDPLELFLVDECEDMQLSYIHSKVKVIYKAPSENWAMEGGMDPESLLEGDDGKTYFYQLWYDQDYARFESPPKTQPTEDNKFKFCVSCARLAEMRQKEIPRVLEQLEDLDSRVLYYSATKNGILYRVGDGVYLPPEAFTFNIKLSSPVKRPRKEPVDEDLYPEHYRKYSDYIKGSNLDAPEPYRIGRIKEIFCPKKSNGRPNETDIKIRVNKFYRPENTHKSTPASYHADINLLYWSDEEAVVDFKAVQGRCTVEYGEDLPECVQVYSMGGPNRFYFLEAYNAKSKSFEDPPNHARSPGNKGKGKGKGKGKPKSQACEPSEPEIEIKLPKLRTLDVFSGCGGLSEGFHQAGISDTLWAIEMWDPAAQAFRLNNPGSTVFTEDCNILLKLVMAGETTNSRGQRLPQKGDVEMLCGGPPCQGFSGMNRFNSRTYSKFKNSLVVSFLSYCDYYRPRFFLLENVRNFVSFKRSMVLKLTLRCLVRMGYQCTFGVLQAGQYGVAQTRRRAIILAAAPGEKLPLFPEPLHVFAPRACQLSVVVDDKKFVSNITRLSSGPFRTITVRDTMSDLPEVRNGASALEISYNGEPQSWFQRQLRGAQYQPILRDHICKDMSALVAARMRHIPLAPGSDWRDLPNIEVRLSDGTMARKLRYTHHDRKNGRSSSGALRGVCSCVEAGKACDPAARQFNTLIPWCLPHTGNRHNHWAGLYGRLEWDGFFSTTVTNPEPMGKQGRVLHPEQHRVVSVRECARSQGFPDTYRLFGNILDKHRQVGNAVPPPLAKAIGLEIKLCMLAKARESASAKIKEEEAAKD
UniProt Q92785, whole entry, looked up: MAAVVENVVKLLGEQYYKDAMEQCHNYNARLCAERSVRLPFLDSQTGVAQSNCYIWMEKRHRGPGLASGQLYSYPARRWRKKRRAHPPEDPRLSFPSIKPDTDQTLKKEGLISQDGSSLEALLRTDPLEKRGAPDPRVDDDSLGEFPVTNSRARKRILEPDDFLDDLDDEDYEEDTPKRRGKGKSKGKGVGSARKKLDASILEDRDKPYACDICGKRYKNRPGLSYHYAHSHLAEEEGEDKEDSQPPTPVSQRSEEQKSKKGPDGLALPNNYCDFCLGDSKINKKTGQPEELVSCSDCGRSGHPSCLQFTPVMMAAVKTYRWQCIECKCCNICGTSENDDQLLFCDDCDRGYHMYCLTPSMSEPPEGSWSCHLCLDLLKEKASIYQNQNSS
UniProt Q9NX74: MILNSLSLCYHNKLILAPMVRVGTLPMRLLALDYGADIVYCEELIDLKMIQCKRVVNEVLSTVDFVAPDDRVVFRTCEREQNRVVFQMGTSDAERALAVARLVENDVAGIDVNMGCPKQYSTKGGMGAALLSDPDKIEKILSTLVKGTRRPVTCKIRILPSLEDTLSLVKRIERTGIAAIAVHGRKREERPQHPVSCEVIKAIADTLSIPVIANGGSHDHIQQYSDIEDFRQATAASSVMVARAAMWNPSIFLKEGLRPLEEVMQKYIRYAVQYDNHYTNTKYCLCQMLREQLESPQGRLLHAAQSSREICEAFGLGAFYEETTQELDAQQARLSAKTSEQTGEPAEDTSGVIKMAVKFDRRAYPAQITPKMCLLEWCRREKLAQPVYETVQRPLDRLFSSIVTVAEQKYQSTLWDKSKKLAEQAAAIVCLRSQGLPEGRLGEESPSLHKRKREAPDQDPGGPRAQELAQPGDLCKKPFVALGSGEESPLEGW
UniProt Q13409, whole entry, looked up: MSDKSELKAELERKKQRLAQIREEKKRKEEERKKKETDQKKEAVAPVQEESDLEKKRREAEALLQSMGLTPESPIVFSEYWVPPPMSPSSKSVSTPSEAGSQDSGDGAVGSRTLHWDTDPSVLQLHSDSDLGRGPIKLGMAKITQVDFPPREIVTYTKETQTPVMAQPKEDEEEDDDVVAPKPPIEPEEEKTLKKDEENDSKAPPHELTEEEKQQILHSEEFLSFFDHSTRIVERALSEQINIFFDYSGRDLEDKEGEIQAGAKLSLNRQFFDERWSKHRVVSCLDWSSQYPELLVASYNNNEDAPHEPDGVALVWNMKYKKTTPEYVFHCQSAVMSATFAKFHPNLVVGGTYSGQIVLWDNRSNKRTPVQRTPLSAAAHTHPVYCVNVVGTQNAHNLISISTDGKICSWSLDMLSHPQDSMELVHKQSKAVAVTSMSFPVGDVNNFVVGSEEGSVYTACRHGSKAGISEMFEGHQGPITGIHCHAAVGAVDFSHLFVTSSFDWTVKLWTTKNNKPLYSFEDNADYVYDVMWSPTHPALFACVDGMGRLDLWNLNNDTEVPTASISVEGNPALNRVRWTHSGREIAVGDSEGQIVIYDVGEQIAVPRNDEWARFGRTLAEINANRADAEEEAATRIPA
UniProt Q99956: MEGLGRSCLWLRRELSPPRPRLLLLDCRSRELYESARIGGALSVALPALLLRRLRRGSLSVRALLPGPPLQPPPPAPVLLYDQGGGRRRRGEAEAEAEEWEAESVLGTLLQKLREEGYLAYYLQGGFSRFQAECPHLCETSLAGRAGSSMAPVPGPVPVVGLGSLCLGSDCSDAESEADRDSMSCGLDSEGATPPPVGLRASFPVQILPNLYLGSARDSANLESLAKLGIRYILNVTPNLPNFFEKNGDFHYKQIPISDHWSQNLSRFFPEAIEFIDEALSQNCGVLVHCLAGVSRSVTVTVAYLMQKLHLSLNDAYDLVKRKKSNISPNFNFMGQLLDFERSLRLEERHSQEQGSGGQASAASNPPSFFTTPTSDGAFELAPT
UniProt Q6P1R4: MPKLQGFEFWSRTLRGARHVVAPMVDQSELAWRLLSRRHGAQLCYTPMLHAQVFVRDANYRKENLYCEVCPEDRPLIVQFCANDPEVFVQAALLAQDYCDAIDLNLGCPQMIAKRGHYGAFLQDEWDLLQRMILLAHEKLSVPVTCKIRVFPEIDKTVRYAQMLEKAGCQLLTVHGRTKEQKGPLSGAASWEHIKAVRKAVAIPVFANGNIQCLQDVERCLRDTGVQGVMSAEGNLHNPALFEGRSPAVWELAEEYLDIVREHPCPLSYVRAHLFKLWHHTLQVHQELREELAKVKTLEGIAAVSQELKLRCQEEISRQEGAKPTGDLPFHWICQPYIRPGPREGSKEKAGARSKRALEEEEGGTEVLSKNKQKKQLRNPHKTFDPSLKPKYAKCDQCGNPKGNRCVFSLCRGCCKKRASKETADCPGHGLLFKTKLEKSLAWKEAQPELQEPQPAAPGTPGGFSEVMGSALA
UniProt Q4G0W2: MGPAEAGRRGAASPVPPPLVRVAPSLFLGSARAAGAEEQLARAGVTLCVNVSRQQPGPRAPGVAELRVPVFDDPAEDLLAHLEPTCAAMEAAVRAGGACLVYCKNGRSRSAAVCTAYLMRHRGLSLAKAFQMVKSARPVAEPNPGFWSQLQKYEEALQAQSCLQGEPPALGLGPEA
UniProt Q9Y295: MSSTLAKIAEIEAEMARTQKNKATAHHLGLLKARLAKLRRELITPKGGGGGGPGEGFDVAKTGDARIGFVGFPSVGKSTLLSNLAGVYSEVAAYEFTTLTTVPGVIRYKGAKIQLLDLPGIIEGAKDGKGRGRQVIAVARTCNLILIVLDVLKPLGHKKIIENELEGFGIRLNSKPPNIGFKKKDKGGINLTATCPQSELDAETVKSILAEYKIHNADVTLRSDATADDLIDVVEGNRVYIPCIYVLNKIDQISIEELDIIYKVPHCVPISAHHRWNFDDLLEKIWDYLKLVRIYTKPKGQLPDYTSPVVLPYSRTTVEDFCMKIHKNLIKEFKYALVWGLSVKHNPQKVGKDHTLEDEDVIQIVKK
UniProt Q9H2P9: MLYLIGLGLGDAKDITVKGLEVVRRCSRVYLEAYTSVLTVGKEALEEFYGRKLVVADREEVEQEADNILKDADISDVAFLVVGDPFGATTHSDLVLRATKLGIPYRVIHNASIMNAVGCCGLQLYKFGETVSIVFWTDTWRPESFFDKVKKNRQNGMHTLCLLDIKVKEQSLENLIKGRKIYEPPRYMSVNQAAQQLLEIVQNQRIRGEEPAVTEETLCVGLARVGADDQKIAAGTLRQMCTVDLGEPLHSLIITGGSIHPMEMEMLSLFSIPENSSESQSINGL

Compound in this experiment: CC1Cc2ccccc2N1C(=O)C1CCCN(C1)C(=O)CCl (mixture of isomers) [TRIM25 ligand 11 (diastereomer mixture)]
Description: probe-labelled cysteine peptide fold change vs DMSO (competition) (log2 fold change); higher = less target engagement (more negative = stronger competition). The settings on record: THP-1, incubation time: 4 h.

This is one part of the list.
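Note: competitive chemoproteomic profiling in live THP-1 cells with an iodoacetamide desthiobiotin (IA-DTB) probe, comparing probe-labelled peptide intensities in compound-treated cells against DMSO-treated controls.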

In the case of “DNPH1_O43598_26_PALYFCGSIR (UniProt O43598)”, the “probe-labelled cysteine peptide fold change” value is -0.075 (10 µM) and -0.00676 (50 µM).

Take “E2F4_Q16254_136_NVTEDVQNSCLAYVTHEDICR (UniProt Q16254)”: the “probe-labelled cysteine peptide fold change” value is 0.0138 (10 µM) and -0.106 (50 µM).

With “DYNC1H1_Q14204_4510_NIHVCLGGLFVPEAYITATR (UniProt Q14204)”, the “probe-labelled cysteine peptide fold change” value is -0.0375 (10 µM) and 0.113 (50 µM).

In the case of “DNPEP_Q9ULA0_447_EMACTTGVLQTLTLFK (UniProt Q9ULA0)”, the “probe-labelled cysteine peptide fold change” value reads like this: (10 µM) -0.0246; (50 µM) 0.0396.

As to “DST_Q03001_5394_AAQLQEALLHCGR (UniProt Q03001)”, the “probe-labelled cysteine peptide fold change” value was 0.0974 (10 µM) and 0.0188 (50 µM).

On to “DUT_P33316-2_3_PCSEETPAISPSK (UniProt P33316)”, for which the “probe-labelled cysteine peptide fold change” value by setting is: (10 µM) -0.149; (50 µM) -0.196.

As for “DUS3L_Q96G46_315_LYLAPLTTCGNLPFRR (UniProt Q96G46)”, the “probe-labelled cysteine peptide fold change” value by setting is: (10 µM) -0.243; (50 µM) -0.253.

For “DTYMK_P23919_163_CFHQLMK (UniProt P23919)”, the “probe-labelled cysteine peptide fold change” value runs as follows: (10 µM) 0.245; (50 µM) 0.1.

For “DNMT1_P26358_353+356_CIQCGQYLDDPDLK (UniProt P26358)”, the “probe-labelled cysteine peptide fold change” value runs as follows: (10 µM) 0.159; (50 µM) 0.177.

On to “DPF2_Q92785_276_KGPDGLALPNNYCDFCLGDSK (UniProt Q92785)”, for which the “probe-labelled cysteine peptide fold change” value (10 µM) was -0.0847 and the “probe-labelled cysteine peptide fold change” value (50 µM) is 0.0551.

Consider “DUS2_Q9NX74_430_KLAEQAAAIVCLR (UniProt Q9NX74)”, for which the “probe-labelled cysteine peptide fold change” value runs as follows: (10 µM) -0.0328; (50 µM) -0.125.

“DNMT1_P26358_353_CIQCGQYLDDPDLK (UniProt P26358)”: the “probe-labelled cysteine peptide fold change” value (10 µM) was -0.0294 and the “probe-labelled cysteine peptide fold change” value (50 µM) is -0.0681.

With “DYNC1I2_Q13409_331_KTTPEYVFHCQSAVMSATFAK (UniProt Q13409)”, the “probe-labelled cysteine peptide fold change” value (10 µM) is 0.134 and the “probe-labelled cysteine peptide fold change” value (50 µM) was found to be 0.233.

Consider “DUT_P33316_222_IAQLICER (UniProt P33316)”, for which the “probe-labelled cysteine peptide fold change” value reads like this: (10 µM) -0.00468; (50 µM) 0.152.

As to “DUSP9_Q99956_27_LLLLDCR (UniProt Q99956)”, the “probe-labelled cysteine peptide fold change” value is -0.0184 (10 µM) and 0.116 (50 µM).

Regarding “DUS1L_Q6P1R4_265_EHPCPLSYVR (UniProt Q6P1R4)”, the “probe-labelled cysteine peptide fold change” value is, setting by setting: (10 µM) 0.219; (50 µM) 0.148.

For the target “DYRK1A_Q13627_551_HSGGHFTAAVQAMDCETHSPQVR (UniProt Q13627)”, the “probe-labelled cysteine peptide fold change” value is 0.068 (10 µM) and -0.236 (50 µM).

With “DUSP28_Q4G0W2_86_VPVFDDPAEDLLAHLEPTCAAMEAAVR (UniProt Q4G0W2)”, the “probe-labelled cysteine peptide fold change” value was -0.0654 (10 µM) and -0.0111 (50 µM).

Regarding “DOT1L_Q8TEK3_750_QNTPQYLASPLDQEVVPCTPSHVGRPR (UniProt Q8TEK3)”, the “probe-labelled cysteine peptide fold change” value is, setting by setting: (10 µM) -0.23; (50 µM) -0.271.

Take “DRG1_Q9Y295_195_GGINLTATCPQSELDAETVK (UniProt Q9Y295)”: the “probe-labelled cysteine peptide fold change” value reads like this: (10 µM) 0.0674; (50 µM) -0.000169.

Regarding “DYRK1A_Q13627_312_IVDFGSSCQLGQR (UniProt Q13627)”, the “probe-labelled cysteine peptide fold change” value stood at 0.13 (10 µM) and 0.143 (50 µM).

Regarding “DPH5_Q9H2P9_219_GEEPAVTEETLCVGLAR (UniProt Q9H2P9)”, the “probe-labelled cysteine peptide fold change” value (10 µM) was found to be 0.0852 and the “probe-labelled cysteine peptide fold change” value (50 µM) is -0.16.

In the case of “DUS3L_Q96G46_282_TCGPLTDEDVVR (UniProt Q96G46)”, the “probe-labelled cysteine peptide fold change” value runs as follows: (10 µM) -0.261; (50 µM) -0.174.
